# Measured values published in PubChem BioAssay AID2052 (NMMLSC, 2009).
# Some of the results follow. Some salts or complexes appear as unconnected parts, following the source record.
# Assay: modulators of CD8 T cell-vesicle binding, primary screen, mouse 2C CD8+ T cells, flow cytometry (AID 2052);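 further: binding gate set so that unloaded-vesicle control wells show 10% double positive cells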
# Details: 2C CD8+ T cell-vesicle binding, measured here: CD8+ vesicle-bound cell fraction, at 7 µM, stronger effect = lower value
# Summary of the method: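 System: murine 2C transgenic CD8+ T lymphocytes; also added: QL9-loaded Drosophila micro-vesicles; times: binding 1.5 h at 37 °C; measured by: flow cytometry, PE anti-B7-1 (FL2) versus Alexa647 anti-CD8 (FL8), PFA-fixed; control set: Peptide-free naked vesicles (low) and QL9 vesicles with 0.7% DMSO vehicle (high)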
row,Compound,double positive events
1,CN(C)C(=O)OCCc1n(C)cc[n+]1C,38.3%
2,CC(C)=N/N=C(\N)N[N+](=O)[O-],49.1%
3,CN(C)C(=O)c1c([N+](=O)[O-])cc([N+](=O)[O-])cc1[N+](=O)[O-],12.7%
4,CC1CCN(C(=O)Oc2c(Cl)cc(Cl)c3cccnc23)CC1,60.1%
5,C[N+]1=C2C=CC=CC=C2SC12C([N+](=O)[O-])=CC([N+](=O)[O-])=C[C-]2[N+](=O)[O-] (centres undefined),8.3%
6,COc1ccccc1OP(C)(=O)Nc1ccccc1Br (centres undefined),44.6%
7,Nc1ccc([As](=O)(O)c2ccc(N)cc2)cc1,11.5%
8,CC(C)(C)c1ccc(OP(C)(=O)O)cc1,27.4%
9,CP(=O)(Nc1ccc(Cl)cc1)Oc1ccc(F)cc1 (centres undefined),22.2%
10,CCN(/C(=N/P(=O)(N1CCOCC1)N1CCOCC1)N1CCOCC1)c1ccc(OC)cc1,54.8%
11,O=C(OCCCN1CCCC1)C(O)(c1ccccc1)C1CCCCC1 (centres undefined),12.9%
12,CC(=O)N1C2C3N(C(C)=O)C1C1N(C(C)=O)C(C(N1C(C)=O)N3C(C)=O)N2C(C)=O,39.7%
13,O=[N+]([O-])c1cccc2n[nH]nc12,50.3%
14,COc1ccccc1OP(C)(=O)Nc1c(C)n(C)n(-c2ccccc2)c1=O (centres undefined),23.3%
15,CCc1ccc(OP(C)(=O)Nc2cccnc2)cc1 (centres undefined),26.8%
16,O=[N+]([O-])c1cc([N+](=O)[O-])c(CCNc2ccccc2)c([N+](=O)[O-])c1,33.8%
17,CCc1nc2c(n1)c1c(non1O)c1c2no[n+]1[O-],37.7%
18,CP(=O)(Oc1ccccc1)N1CCOC1=O (centres undefined),49.6%
19,Cc1ccc(NP(=O)(Oc2ccccc2)Oc2ccccc2)nc1,23.5%
20,COc1ccc(OP(C)(=O)Nc2ccc(Br)cc2)cc1 (centres undefined),48%
21,COc1ccc(C2=NCC(CBr)S2)cc1 (centres undefined),50.9%
22,CCN(CC)CC(O)COC(=O)C(O)(c1ccccc1)C1CCCCC1 (centres undefined),30.8%
23,O=[N+]([O-])c1cccc(NC2=NCC(CBr)S2)c1 (centres undefined),27.8%

row,Compound,double positive events
1,O=C(O)CNc1ccc([As](=O)(O)O)cc1,22.6%
2,CC(C)(C)C(=O)NC(Sc1ccncn1)C(Cl)(Cl)Cl (centres undefined),34.1%
3,O=[N+]([O-])c1ncn(CCn2ncnc2[N+](=O)[O-])n1,39%
4,O=C(Nc1cc([As](=O)(O)O)ccc1O)c1ccccc1,57.7%
5,CCOC(=O)c1ccc(NP(C)(=O)Oc2ccc(Cl)cc2)cc1 (centres undefined),51.9%
6,CP(=O)(OC12CC3CC(CC(C3)C1)C2)OC12CC3CC(CC(C3)C1)C2,22.8%
7,Nc1ccc2c(ccc3cccnc32)n1.O=[N+]([O-])c1cc([N+](=O)[O-])c(O)c([N+](=O)[O-])c1,56.5%
8,CCN(N=Nc1nonc1N)c1nonc1N,53.3%
9,CP(=O)(Nc1ccc(Cl)cc1Cl)Oc1ccccc1 (centres undefined),36.5%
10,CP(=O)(OCCOc1ccccc1)OCCOc1ccccc1,31.9%
11,Nc1cccc2ccc([As](=O)(O)O)cc12,14.6%
12,Cc1nc2ccc3ccccc3c2o1.O=[N+]([O-])c1cc([N+](=O)[O-])c(O)c([N+](=O)[O-])c1,55.2%
13,O=[N+]([O-])c1cc([N+](=O)[O-])c(CCN2CCOCC2)c([N+](=O)[O-])c1,27%
14,COc1ccccc1OP(C)(=O)Nc1ccc(C)c(C)c1 (centres undefined),36.2%
15,CN(C(=O)Cc1ccc(Cl)c(Cl)c1)[C@H]1CCCC[C@@H]1N1CCCC1,40.4%
16,Cc1ccc(NP(=O)(Oc2ccccc2F)Oc2ccccc2F)nc1,54.9%
17,Cc1cc(SC(NC(=O)c2ccc(F)cc2)C(Cl)(Cl)Cl)ncn1 (centres undefined),34.9%
18,CCOP(=O)(Nc1ccccc1)OCC,56.8%
19,COc1ccc(OP(C)(=O)Nc2ccccc2Br)cc1 (centres undefined),4.1%
20,CC(=O)Nc1ccc([As](=O)(O)O)cc1,26.8%
21,O=C(O)c1ccccc1[As](=O)(O)O,21.7%
22,O=P(Nc1nc2ccc(Cl)cc2s1)(c1ccccc1)c1ccccc1,27.5%
23,Cc1cc(C)cc(OP(C)(=O)Nc2cccc(C(F)(F)F)c2)c1 (centres undefined),47.6%

row,Compound,double positive events
1,COc1ccccc1OP(C)(=O)Nc1ccc(C)cc1C (centres undefined),9.8%
2,CP(=O)(Nc1ccccn1)Oc1ccccc1 (centres undefined),41.3%
3,CCc1ccc(OP(C)(=O)O)cc1,32.6%
4,Nc1cc(N)c2nonc2c1[N+](=O)[O-],57.5%
5,Cc1c(NP(C)(=O)Oc2ccc(C(C)C)cc2)c(=O)n(-c2ccccc2)n1C (centres undefined),42.7%
6,O=[N+]([O-])c1cc([N+](=O)[O-])c(Nc2ccccn2)c([N+](=O)[O-])c1,15.8%
7,CC(C)CC(=O)NC(Sc1ccc(Cl)cc1)C(Cl)(Cl)Cl (centres undefined),18.7%
8,O=C(NC(Sc1ccncn1)C(Cl)(Cl)Cl)c1ccccc1 (centres undefined),5.3%
9,Cc1c2non([O-])c-2c(C)[n+](=O)[n+]1[O-],49.4%
10,Oc1ccccc1CNc1ccccn1,14.7%
11,Cc1ccc(OP(=O)(Nc2nccs2)Oc2ccc(C)cc2)cc1,38.6%
12,COc1ccccc1OP(=O)(Nc1ccc(C)cn1)Oc1ccccc1OC,40%
13,COc1ccc(OP(C)(=O)Nc2ccccn2)cc1 (centres undefined),13.3%
14,CN1CCCC(OC(=O)C(c2ccccc2)c2ccccc2)C1 (centres undefined),45.4%
15,CN(C)CCOC(=O)C(O)(c1ccccc1)C1CCCC1 (centres undefined),29.2%
16,Clc1ccc(Cl)c(NC2=NCC(CBr)S2)c1 (centres undefined),44.1%
17,NC(=O)c1cc([N+](=O)[O-])cc([N+](=O)[O-])c1N,6.8%
18,Cc1ccc(N/C(=N/P(=O)(N2CCOCC2)N2CCOCC2)N2CCOCC2)cc1,23.7%
19,CN(C(=O)Cc1ccc(Cl)c(Cl)c1)[C@H]1CCCC[C@H]1N1CCCC1,23.5%
20,COc1ccccc1OP(C)(=O)Nc1ccc(Br)cc1 (centres undefined),40.7%
21,CC(=O)Nc1ccc(Oc2c([N+](=O)[O-])cc([N+](=O)[O-])cc2[N+](=O)[O-])cc1,16%
22,CC(=O)Nc1ccc([As](=O)(O)O)c(O)c1,19.5%
23,COc1ccc2c(c1O)-c1c(O)c(OC)cc3c1[C@H](C2)[N+](C)(C)CC3.O=[N+]([O-])c1cc([N+](=O)[O-])c([O-])c([N+](=O)[O-])c1[O-],49%

row,Compound,double positive events
1,O=C(OC1CN2CCC1CC2)c1ccc([N+](=O)[O-])cc1 (centres undefined),33.9%
2,CC(=O)c1ccc(N2CC2c2ccncc2)cc1 (centres undefined),31.1%
3,C[C@H]1OP(=O)(Oc2ccccc2)C[C@@H]2O[C@@H]21 (some centres undefined),21%
4,C[C@@H]1C=CCP(=O)(Oc2ccccc2)O1 (some centres undefined),60.5%
5,O=C(OCCN1CCN(CCOCc2ccccc2)CC1)C(O)(c1ccccc1)c1ccccc1,12%
6,Cc1ccccc1CN(C)C(=O)COC(=O)C(O)(c1ccccc1)c1ccccc1,29.1%
7,CP(=O)(Nc1ccccc1F)Oc1ccccc1 (centres undefined),43%
8,CC(C)c1ccc(OP(C)(=O)Nc2ccc(SC(F)(F)F)cc2)cc1 (centres undefined),41.1%
9,CC(C)(C)C(=O)NC(Sc1ccccc1)C(Cl)(Cl)Cl (centres undefined),2.7%
10,CCOc1ccc(C2=NCC(CBr)S2)cc1 (centres undefined),24.1%
11,O=P1(Nc2nc3ccc(Cl)cc3s2)COc2ccccc2O1 (centres undefined),9.3%
12,CP(=O)(Nc1ccccc1)Oc1ccc(F)cc1 (centres undefined),12%
13,CCCCCOc1ccc(NP(C)(=O)Oc2ccc(Cl)cc2Cl)cc1 (centres undefined),48.7%
14,O=[N+]([O-])c1cc([N+](=O)[O-])c(OC2CCCCC2O)c([N+](=O)[O-])c1 (centres undefined),64.5%
15,CN(C)C(=O)Oc1noc2ccccc12,41.7%
16,CC(NC(=O)COC(=O)C(O)(c1ccccc1)c1ccccc1)c1ccccc1 (centres undefined),28.2%
17,Cc1ccccc1OP(=O)(Nc1ccccn1)Oc1ccccc1C,28.6%
18,CC(=O)NC(SC(=S)N(CC(C)C)CC(C)C)C(Cl)(Cl)Cl (centres undefined),61.7%
19,Cc1ccc(OP(=O)(Nc2ccccn2)Oc2ccc(C)cc2)cc1,52.7%
20,COC(=O)c1cc2c(s1)N=C(c1ccccc1)N(C)P2(=O)N1CCOCC1 (centres undefined),59%
21,CCC(=O)N1C2C3N(C(=O)CC)C1C1N(C(=O)CC)C(C(N1C(=O)CC)N3C(=O)CC)N2C(=O)CC,54.4%
22,CCN(CC)CCCOC(=O)C(O)(c1ccccc1)C1CCCCC1 (centres undefined),15.4%
23,O=C(OC1CN2CCC1CC2)c1ccccc1 (centres undefined),8.9%

row,Compound,double positive events
1,CCOC(=O)c1ccc(NP(C)(=O)Oc2ccc(F)cc2)cc1 (centres undefined),64.1%
2,COc1ccc(OP(C)(=O)Nc2ccc(SC(F)(F)F)cc2)cc1 (centres undefined),31.8%
3,O=C(NC1CCS(=O)(=O)C1)NP(=S)(Oc1ccccc1)Oc1ccccc1 (centres undefined),50%
4,CCNC(=S)/N=C(\N)N[N+](=O)[O-],5.6%
5,Cc1ccc(NP(=O)(Oc2cccc(C)c2)Oc2cccc(C)c2)nc1,14.1%
6,CCOC(=O)NC(Sc1ccccc1)C(Cl)(Cl)Cl (centres undefined),12.5%
7,c1ccc(-c2nn[nH]n2)c(-c2nn[nH]n2)c1,37.5%
8,C(Cc1nn[nH]n1)Cc1nn[nH]n1,46%
9,Nc1ccc([As](=O)(O)c2ccc([N+](=O)[O-])cc2)cc1,13.8%
10,O=C(OC1CN2CCC1CC2)c1cccc(Cl)c1 (centres undefined),51.7%
11,CC(=O)NC(SC(=S)N(C)C)C(Cl)(Cl)Cl (centres undefined),46.4%
12,O=[N+]([O-])c1ccc(OP2(=O)COCCO2)cc1 (centres undefined),46.7%
13,O=[N+]([O-])c1ncn(CCn2cnc([N+](=O)[O-])n2)n1,39.6%
14,O=[N+]([O-])c1ccc(O)c(/C=N/Nc2ccc([N+](=O)[O-])cc2[N+](=O)[O-])c1,55.8%
15,O=[N+]([O-])c1cc([N+](=O)[O-])c(NCC2CCS(=O)(=O)C2)c([N+](=O)[O-])c1 (centres undefined),25.1%
16,O=[As](O)(c1ccccc1)c1ccc(O)cc1,50.8%
17,C[C@H]1OP(=O)(Oc2ccccc2)[C@H](O)[C@H](O)[C@H]1N=[N+]=[N-] (some centres undefined),35%
18,O=P(Nc1nc2ccccc2s1)(c1ccccc1)c1ccccc1,55.5%
19,CN(C)CCOC(=O)C(O)(c1ccccc1)C1CCCCC1 (centres undefined),18.1%
20,COc1ccc(NP(C)(=O)Oc2ccccc2OC)cc1 (centres undefined),52.1%
21,COc1ccc(OP(C)(=O)Nc2cccc(Br)c2)cc1 (centres undefined),15.5%
22,CN(C)C1(CNC(=O)c2ccc(Cl)c(S(N)(=O)=O)c2)CCCCC1,16.3%
